Earlier results as cited in patent publication US12083130B2, “Combination hormone formulations and therapies” (Caren Pharmaceuticals, Inc., priority 2019, dated 2024).
At least one structure is not confirmed: it was looked up by name or label, or the drawing left a doubt.

Test system: ER-β:ER-α
Details: cited from earlier work

Compound	binding strength to ERα relative to ERβ	ER-β:ER-α binding strength ratio
C[C@]12CC[C@@H]3c4ccc(O)cc4CC[C@H]3[C@@H]1CCC2=O [Estrone]	five	–
C[C@]12CC[C@@H]3c4ccc(O)cc4CC[C@H]3[C@@H]1CC[C@@H]2O [estradiol]	–	1:1
